According to patent US20240115875A1, “Systems, Methods, and Substances for Controlled Endoluminal Energy Application” (Dream Big Biotechnologies B.V., priority 2021, published 2024):

System: tumor tissue
Experiment: Estimated PDT threshold doses for several photosensitizers (photodynamic threshold model)
Conditions: at the wavelength printed with each photosensitizer
Procedure: In these simulations, we assumed intravenous administration of a light-absorbing drug and the placement of a light emitter in the endovascular system at the site of tumor encroachment around it. Light absorbed by the photosensitizer was assumed to result in the local creation of short-lived cytotoxic radicals, causing cell death e.g. hemorrhagic tissue necrosis and apoptosis. To quantify the attainable effects, light-dose escalation studies were performed using Monte Carlo light propagation simulations (FullMonteCUDA) (“High-performance, robustly verified Monte Carlo simulation with FullMonte,” J. Biomed. Opt. 23(8), 085001 (2018)). The use of the photosensitizer BPD-MA mediated PDT was initially investigated in a simple “cube and tube” geometry representing the pancreas and a vessel traversing its center. The multilayered tube represented the vascular wall layers, intima, media and adventitia having an air-filled balloon with a linear line source in the center. […] Simulation properties were assigned as described above and PDT activation energies were escalated over the range of 10-100 J cm^−1 diffuser length, and the anticipated threshold dose in mJ·cm^−3 and radii of necrosis were estimated based on the photodynamic threshold model introduced by Patterson M, Wilson B C, Graff R: In vivo test of the concept of photodynamic threshold dose in normal rat liver photosensitized by aluminum chlorosulfunated phthalocyanine. Photochem Photobiol, 51(3): 343-349, 1990.
The pancreatic model is shown in FIG. 7A comprising a 4×4×5 cm cube, one half is assigned with optical properties of normal pancreatic tissue and the other half with those of cancerous pancreatic tissues. Running through the cube's center is a blood vessel made up of three layers, intima, media, adventitia, with assigned properties from the literature for aortic tissues. An initial dose-escalation simulation investigated if an adequate fluence [J·cm^−2] can be delivered through the vessel wall to create a surgically sufficiently large circumferential necrotic margin (mm) surrounding the vessel, based on the photosensitizer accumulation and the sensitizer's molar extinction coefficient. The vessel's inner diameter and wall thickness were set to 7.0 mm and 1.30 mm, respectively. The energy emitting source was cylindrical in shape with a length of 20 mm and the irradiance at the intima surface was fixed at 200 mW·cm^−2. The exposure times escalated to deliver 10 to 100 J total energy. An example of the absorbed energy density as a function of radius from the vessel center is shown in FIG. 7B, with an estimated necrotic margin ranging from […]. The subsequent necrotic clearing of viable tumor tissue from the adventitia is predicted based on the threshold model for common photosensitizers, see Tables 1 and 2.

| Compound | 2.3 ϵC [cm⁻¹] |
| --- | --- |
| c1ccc2c(c1)-c1nc-2nc2[nH]c(nc3nc(nc4[nH]c(n1)c1ccccc41)-c1ccccc1-3)c1ccccc21 [Phthalocyanine] | 3.25 |
| C=Cc1c(C)c2cc3nc(c(CC(=O)N[C@@H](CC(=O)O)C(=O)O)c4[nH]c(cc5nc(cc1[nH]2)C(C)=C5CC)c(C)c4C(=O)O)[C@@H](CCC(=O)O)[C@@H]3C [Talaporfin] | 0.20 |
| Photofrin | 0.02 |
| benzoporphyrin derivative monoacid ring A [Verteporfin] | 2.50 |
